This note sets out measurements from PubChem BioAssay AID248 (DTP/NCI, 2004).

The subject of the experiment is L1210 leukemia ip in BDF1 mice, survival T/C. Put plainly: NCI In Vivo Anticancer Drug Screen. Data for tumor model L1210 Leukemia (intraperitoneal) in B6D2F1 (BDF1) mice. Particulars: T/C endpoint: mean survival time, higher T/C = longer survival.
The mark [1] stands for this setting: dose: 400.0 mg/kg/injection, schedule: Q01DX001 (ip), vehicle: saline.
Where [2] appears, read: dose: 200.0 mg/kg/injection, schedule: Q04DX003 (ip), vehicle: Klucel (hydroxypropylcellulose) (HPC).
Setting [3] is: dose: 400.0 mg/kg/injection, schedule: Q04DX003 (ip), vehicle: Klucel (hydroxypropylcellulose) (HPC).
The mark [4] stands for this setting: dose: 400.0 mg/kg/injection, schedule: Q04DX002 (ip), vehicle: saline with Tween-80.
The mark [5] stands for this setting: dose: 100.0 mg/kg/injection, schedule: Q04DX003 (ip), vehicle: Klucel (hydroxypropylcellulose) (HPC).
The mark [6] stands for this setting: dose: 100.0 mg/kg/injection, schedule: Q01DX009 (ip), vehicle: Klucel (hydroxypropylcellulose) (HPC).
[7] abbreviates: dose: 400.0 mg/kg/injection, schedule: Q01DX009 (ip), vehicle: Klucel (hydroxypropylcellulose) (HPC).
Where [8] appears, read: dose: 200.0 mg/kg/injection, schedule: Q01DX001 (ip), vehicle: saline.
Where [9] appears, read: dose: 200.0 mg/kg/injection, schedule: Q04DX003 (ip), vehicle: saline with Tween-80.
The mark [10] stands for this setting: dose: 400.0 mg/kg/injection, schedule: Q04DX003 (ip), vehicle: saline with Tween-80.

The list does not hold the whole screen: it gathers tests that were run many times, whatever their T/C, doses with no T/C, and many T/C values between a quarter and a half above the control. Further doses and runs are listed elsewhere. T/C gives the treated animals as a percentage of the vehicle group. Some entries give survivors of the animals treated and no T/C: the source holds a T/C of zero for them, seemingly a mark for toxic or unscored doses. Some doses without a T/C left all or most animals alive at the check, yet need not have been tolerated: survival well below the control is almost never listed, so the zero probably covers shortened survival too. Survivors were counted at the toxicity check, usually on the fifth day, unless a day is given; later deaths do not show. Schedule codes are those of the source, read here as Q, the interval in days (D) or hours (H), X, the number of doses. Some schedules carry Z or #; the key to these is not given. For survival time, this PubChem deposit counts one and a half times the control or more as active, and values a quarter to a half above the control carry no call in these data; other NCI protocols may use other cut-offs.

For the compound `CC1CN(Cc2ccccc2)C(=O)N(c2ccccc2)C1=O` (stereo unspecified), the survivor count (dose: 200.0 mg/kg/injection, schedule: Q01DX Z (ip), vehicle: methylcellulose (MC)) was 3 of 6. Take `CC(C)NCC(O)c1cccc(O)c1` (stereo unspecified): the survivor count under setting [1] is 1 of 6. Take `COC(=O)c1cncn1C(C)c1cccc2ccccc12` (stereo unspecified): the survivor count is 3 of 6 under setting [2] and 1 of 6 under setting [3]. Consider `Cc1cccc(C)c1N(COC(C)C)C(=O)CCl`, for which the survivor count (dose: 400.0 mg/kg/injection, schedule: Q01DX009 (ip), vehicle: saline with Tween-80) was 3 of 6. `CSc1ncnc2c1C[P+](Cc1ccccc1)(c1ccccc1)CC2` (stereo unspecified): the survivor count (dose: 200.0 mg/kg/injection, schedule: Q04DX002 (ip), vehicle: saline with Tween-80) is on record as 0 of 3 and the survivor count under setting [4] is listed as 0 of 3. As to `C(=N\C(/N=C/c1ccccc1)c1ccccc1)/c1ccccc1`, the survivor count by setting is: under setting [5], 6 of 6; under setting [2], 6 of 6; under setting [3], 6 of 6. Turning to `CCC1(OC(C)=O)C(=O)OCc2c1cc1n(c2=O)Cc2cc3ccccc3nc2-1` (stereo unspecified), the T/C (dose: 0.6 mg/kg/injection, schedule: Q01DX Z (ip), vehicle: water) is 128 % of control. On to `CCCCCCCCCCNCCCCNCCCCCCCCCC`, for which the survivor count runs as follows: (dose: 12.5 mg/kg/injection, schedule: Q01DX009 (ip), vehicle: Klucel (hydroxypropylcellulose) (HPC)) 4 of 6; (dose: 25.0 mg/kg/injection, schedule: Q01DX009 (ip), vehicle: Klucel (hydroxypropylcellulose) (HPC)) 0 of 6; (dose: 50.0 mg/kg/injection, schedule: Q01DX009 (ip), vehicle: Klucel (hydroxypropylcellulose) (HPC)) 0 of 6; under setting [6], 0 of 6; (dose: 200.0 mg/kg/injection, schedule: Q01DX009 (ip), vehicle: Klucel (hydroxypropylcellulose) (HPC)) 0 of 6; under setting [7], 0 of 6. As to `COC(=O)C1C2CC3c4[nH]c5cc(OC)ccc5c4CCN3CC2CC(O)C1OC` (stereo unspecified), the survivor count (dose: 200.0 mg/kg/injection, schedule: Q04DX002 (ip), vehicle: Klucel (hydroxypropylcellulose) (HPC)) is 1 of 3 and the survivor count (dose: 400.0 mg/kg/injection, schedule: Q04DX002 (ip), vehicle: Klucel (hydroxypropylcellulose) (HPC)) is on record as 0 of 3. On to `CC1=C[P+](C)(Cc2ccccc2)CC1` (stereo unspecified), for which the survivor count under setting [8] is recorded as 0 of 6. In the case of `COc1cc(NC(C)CCCN)c2ncccc2c1` (stereo unspecified), the survivor count under setting [9] was 0 of 6 and the survivor count under setting [10] is listed as 0 of 6. As for `O=C1C=CC(=O)C(SCC(O)CO)=C1` (stereo unspecified), the survivor count by setting is: (dose: 75.0 mg/kg/injection, schedule: Q01DX001 (ip), vehicle: other) 0 of 6; (dose: 150.0 mg/kg/injection, schedule: Q01DX001 (ip), vehicle: other) 2 of 6; (dose: 300.0 mg/kg/injection, schedule: Q01DX001 (ip), vehicle: other) 0 of 6. On to `CC(=O)Nc1ccc(NC(=O)NCCCl)cc1`, for which the survivor count under setting [3] is reported as 6 of 6. As for `CC(C)(CCCl)NCc1ccccc1`, the survivor count is on record as 3 of 6 (dose: 200.0 mg/kg/injection, schedule: Q04DX003 (ip), vehicle: saline) and 0 of 6 (dose: 400.0 mg/kg/injection, schedule: Q04DX003 (ip), vehicle: saline). For `O=S(=O)(F)c1ccc(CBr)cc1`, the survivor count was 2 of 6 under setting [8] and 0 of 6 under setting [1].

Consider `CCOc1c(/C=N/NC(=O)c2ccccc2OC)cccc1OC`, for which the survivor count under setting [7] is 4 of 6. In the case of `CC(C)(C)C(=O)CC(=O)C(C)(C)C.CC(C)(C)C(=O)CC(=O)C(C)(C)C.[Zn]`, the survivor count under setting [10] is on record as 1 of 6. As for `O=C(O)c1cc([N+](=O)[O-])ccc1F`, the survivor count (dose: 300.0 mg/kg/injection, schedule: Q01DX001 (ip), vehicle: acetone) is 3 of 6. Regarding `CN/N=C/c1ccccc1`, the survivor count was 2 of 3 (dose: 100.0 mg/kg/injection, schedule: Q01DX009 (ip), vehicle: saline with Tween-80); 0 of 3 (dose: 200.0 mg/kg/injection, schedule: Q01DX009 (ip), vehicle: saline with Tween-80); 0 of 3 under setting [4].

As for `C[n+]1ccc(/C=C/c2ccc(Cl)c(Cl)c2)c2ccccc21`, the survivor count runs as follows: under setting [5], 0 of 6; under setting [2], 0 of 6; under setting [3], 0 of 6. For the compound `O=C(NCCCN1CCOCC1)C(Oc1ccccc1)Oc1ccccc1`, the survivor count under setting [6] is reported as 6 of 6.

On to `C1=C(c2ccccc2)NN=C(c2ccccc2)C1c1ccccc1` (stereo unspecified), for which the survivor count reads like this: (dose: 100.0 mg/kg/injection, schedule: Q01DX001 (ip), vehicle: saline with Tween-80) 6 of 6; (dose: 200.0 mg/kg/injection, schedule: Q01DX001 (ip), vehicle: saline with Tween-80) 6 of 6; (dose: 400.0 mg/kg/injection, schedule: Q01DX001 (ip), vehicle: saline with Tween-80) 6 of 6. Take `CCCCN(CCCC)CC(C)O` (stereo unspecified): the survivor count was 0 of 6 under setting [9] and 0 of 6 under setting [10]. In the case of `CCOC(=O)C(=N\Nc1ccc(C)c(C)c1)/C(C)=N\NC(N)=S`, the survivor count (dose: 300.0 mg/kg/injection, schedule: Q01DX001 (ip), vehicle: saline) is listed as 0 of 6.
